Source: doi:10.1101/2020.01.30.927038
These are yes or no findings as the source states them, for the method shown. Binding seen in cells or lysates may run through a third protein. Some entries that bind do so weakly or less than the wild type.

Protein sequences, listed by entry. Tags and fused reporters are not part of them. Residues count along the entry.
UniProt Q9Y4K0, residues 26-774: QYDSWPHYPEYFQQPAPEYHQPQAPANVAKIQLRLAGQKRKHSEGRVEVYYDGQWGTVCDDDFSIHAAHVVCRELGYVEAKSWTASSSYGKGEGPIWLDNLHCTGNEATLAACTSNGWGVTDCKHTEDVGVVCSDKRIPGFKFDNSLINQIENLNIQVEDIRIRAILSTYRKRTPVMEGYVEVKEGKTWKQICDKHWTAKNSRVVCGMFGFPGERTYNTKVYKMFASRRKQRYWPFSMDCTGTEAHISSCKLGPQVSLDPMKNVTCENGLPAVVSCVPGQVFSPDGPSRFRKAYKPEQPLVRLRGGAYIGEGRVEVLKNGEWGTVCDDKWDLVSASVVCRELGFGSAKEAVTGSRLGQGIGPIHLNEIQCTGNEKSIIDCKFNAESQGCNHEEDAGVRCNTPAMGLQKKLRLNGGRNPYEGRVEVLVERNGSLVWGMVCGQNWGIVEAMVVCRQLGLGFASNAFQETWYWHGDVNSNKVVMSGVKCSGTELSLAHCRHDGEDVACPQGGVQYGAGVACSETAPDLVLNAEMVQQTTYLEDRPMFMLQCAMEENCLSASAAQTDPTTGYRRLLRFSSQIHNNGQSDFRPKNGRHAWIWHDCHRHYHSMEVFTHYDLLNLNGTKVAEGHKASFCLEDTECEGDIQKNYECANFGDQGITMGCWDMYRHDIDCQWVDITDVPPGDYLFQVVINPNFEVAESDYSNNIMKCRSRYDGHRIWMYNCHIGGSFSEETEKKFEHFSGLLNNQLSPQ
UniProt Q16531: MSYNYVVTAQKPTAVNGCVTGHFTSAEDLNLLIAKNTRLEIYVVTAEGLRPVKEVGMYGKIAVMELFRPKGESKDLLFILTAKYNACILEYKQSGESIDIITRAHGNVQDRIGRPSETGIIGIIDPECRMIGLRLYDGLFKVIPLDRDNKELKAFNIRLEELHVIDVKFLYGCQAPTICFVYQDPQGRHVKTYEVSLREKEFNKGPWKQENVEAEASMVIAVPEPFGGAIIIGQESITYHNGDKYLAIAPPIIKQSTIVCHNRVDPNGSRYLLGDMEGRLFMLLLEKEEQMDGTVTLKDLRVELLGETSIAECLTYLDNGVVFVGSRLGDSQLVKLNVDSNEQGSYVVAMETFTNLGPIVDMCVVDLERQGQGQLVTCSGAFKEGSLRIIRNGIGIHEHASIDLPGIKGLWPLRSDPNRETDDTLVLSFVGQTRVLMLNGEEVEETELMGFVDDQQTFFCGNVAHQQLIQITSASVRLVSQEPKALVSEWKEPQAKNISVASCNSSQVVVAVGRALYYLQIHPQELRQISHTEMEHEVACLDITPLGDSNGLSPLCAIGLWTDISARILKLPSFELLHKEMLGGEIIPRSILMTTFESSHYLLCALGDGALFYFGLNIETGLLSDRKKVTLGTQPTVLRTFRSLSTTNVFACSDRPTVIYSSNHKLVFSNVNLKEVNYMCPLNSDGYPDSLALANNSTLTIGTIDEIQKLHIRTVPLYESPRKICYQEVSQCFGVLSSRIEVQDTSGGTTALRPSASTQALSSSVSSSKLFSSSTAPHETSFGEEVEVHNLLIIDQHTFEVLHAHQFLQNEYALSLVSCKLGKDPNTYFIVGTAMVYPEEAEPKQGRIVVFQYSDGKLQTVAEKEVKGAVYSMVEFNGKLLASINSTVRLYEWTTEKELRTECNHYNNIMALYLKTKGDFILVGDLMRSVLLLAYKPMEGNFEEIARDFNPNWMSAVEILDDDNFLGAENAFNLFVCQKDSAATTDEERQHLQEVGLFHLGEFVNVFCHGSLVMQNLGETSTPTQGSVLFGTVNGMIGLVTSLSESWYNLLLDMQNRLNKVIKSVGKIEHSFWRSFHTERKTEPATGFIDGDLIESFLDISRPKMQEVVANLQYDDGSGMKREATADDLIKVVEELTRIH
UniProt O96019: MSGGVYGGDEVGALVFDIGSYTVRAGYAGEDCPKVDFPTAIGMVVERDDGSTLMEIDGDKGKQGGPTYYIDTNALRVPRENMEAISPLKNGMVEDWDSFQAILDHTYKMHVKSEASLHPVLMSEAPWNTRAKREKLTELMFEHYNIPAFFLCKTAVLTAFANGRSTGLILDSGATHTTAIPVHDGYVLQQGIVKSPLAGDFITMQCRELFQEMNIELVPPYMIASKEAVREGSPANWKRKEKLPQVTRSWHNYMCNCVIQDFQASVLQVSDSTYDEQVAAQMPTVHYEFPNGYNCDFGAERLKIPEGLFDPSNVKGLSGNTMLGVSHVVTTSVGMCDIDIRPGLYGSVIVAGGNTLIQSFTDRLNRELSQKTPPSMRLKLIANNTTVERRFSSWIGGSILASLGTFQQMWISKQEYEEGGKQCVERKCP
UniProt Q13620: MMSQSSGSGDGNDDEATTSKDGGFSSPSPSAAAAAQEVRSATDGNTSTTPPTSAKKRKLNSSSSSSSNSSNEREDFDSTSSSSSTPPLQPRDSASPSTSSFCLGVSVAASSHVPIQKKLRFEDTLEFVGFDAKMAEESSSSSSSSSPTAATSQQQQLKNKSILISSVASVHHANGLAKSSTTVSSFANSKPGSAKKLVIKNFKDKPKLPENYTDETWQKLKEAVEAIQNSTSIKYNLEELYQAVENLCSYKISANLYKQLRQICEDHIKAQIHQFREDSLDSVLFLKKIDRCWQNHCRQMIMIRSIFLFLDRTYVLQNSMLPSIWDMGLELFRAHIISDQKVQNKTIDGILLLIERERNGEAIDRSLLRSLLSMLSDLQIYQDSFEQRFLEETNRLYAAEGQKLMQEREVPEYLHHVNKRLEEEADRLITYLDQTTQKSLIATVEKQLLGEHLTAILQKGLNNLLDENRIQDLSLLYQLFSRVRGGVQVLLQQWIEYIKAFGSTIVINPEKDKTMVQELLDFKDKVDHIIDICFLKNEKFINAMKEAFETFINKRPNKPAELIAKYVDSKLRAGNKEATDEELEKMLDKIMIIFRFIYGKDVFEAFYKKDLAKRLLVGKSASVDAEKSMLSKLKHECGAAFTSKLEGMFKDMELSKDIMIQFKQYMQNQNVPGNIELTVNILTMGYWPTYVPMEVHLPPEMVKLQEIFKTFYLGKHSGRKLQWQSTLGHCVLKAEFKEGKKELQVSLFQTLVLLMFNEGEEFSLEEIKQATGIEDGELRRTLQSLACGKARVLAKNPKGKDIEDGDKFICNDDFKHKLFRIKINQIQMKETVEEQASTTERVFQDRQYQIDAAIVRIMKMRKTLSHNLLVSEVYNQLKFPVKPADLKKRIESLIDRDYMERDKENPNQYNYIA
UniProt Q9NPF5: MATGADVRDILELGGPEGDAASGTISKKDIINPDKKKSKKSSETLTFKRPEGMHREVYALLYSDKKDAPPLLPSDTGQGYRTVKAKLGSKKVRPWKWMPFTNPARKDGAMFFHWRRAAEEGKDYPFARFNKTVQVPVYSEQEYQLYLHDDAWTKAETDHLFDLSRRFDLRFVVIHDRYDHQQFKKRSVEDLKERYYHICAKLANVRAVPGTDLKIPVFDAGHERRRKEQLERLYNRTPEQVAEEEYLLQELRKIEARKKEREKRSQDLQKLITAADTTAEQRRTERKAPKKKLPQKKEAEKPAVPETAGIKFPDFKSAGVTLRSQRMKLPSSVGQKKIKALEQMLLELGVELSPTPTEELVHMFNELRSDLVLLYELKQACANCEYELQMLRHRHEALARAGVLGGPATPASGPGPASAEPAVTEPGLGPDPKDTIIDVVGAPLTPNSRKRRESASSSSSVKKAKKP
UniProt Q9Y265: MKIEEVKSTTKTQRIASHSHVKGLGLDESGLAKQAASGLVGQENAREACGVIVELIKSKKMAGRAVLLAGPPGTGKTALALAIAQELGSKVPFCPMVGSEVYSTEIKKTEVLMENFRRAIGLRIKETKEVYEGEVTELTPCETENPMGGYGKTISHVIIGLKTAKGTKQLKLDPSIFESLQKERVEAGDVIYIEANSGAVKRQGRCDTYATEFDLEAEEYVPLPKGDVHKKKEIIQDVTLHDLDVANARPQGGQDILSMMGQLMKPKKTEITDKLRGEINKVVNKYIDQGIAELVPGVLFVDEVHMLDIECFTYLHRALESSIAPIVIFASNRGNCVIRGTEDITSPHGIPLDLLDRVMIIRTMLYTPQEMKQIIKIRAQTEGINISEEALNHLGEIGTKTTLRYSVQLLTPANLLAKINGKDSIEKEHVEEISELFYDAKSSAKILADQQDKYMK

B1: RING1B, Q99496 1-336 (protein)
chain: MSQAVQTNGTQPLSKTWELSLYELQRTPQEAITDGLEIVVSPRSLHSELMCPICLDMLKNTMTTKECLHRFCADCIITALRSGNKECPTCRKKLVSKRSLRPDPNFDALISKIYPSRDEYEAHQERVLARINKHNNQQALSHSIEEGLKIQAMNRLQRGKKQQIENGSGAEDNGDSSHCSNASTHSNQEAGPSNKRTKTSDDSGLELDNNNAAMAIDPVMDGASEIELVFRPHPTLMEKDDSAQTRYIKTSGNATVDHLSKYLAVRLALEELRSKGESNQMNLDTASEKQYTIYIATASGQFTVLNGSFSLELVSEKYWKVNKPMELYYAPTKEHK

Experiments:
Experiment in all cases: co-IP
[1] = biological target: LOXL2-FLAG (lysyl oxidase-like 2, wild type, from pcDNA3-hLOXL2wt-Flag) (human) (UniProt Q9Y4K0)
[2] = biological target: DNA damage-binding protein 1 (DDB1), endogenous (human (endogenous in MDA-MB-231)) (UniProt Q16531)
[3] = biological target: DNA damage-binding protein 1 (DDB1), endogenous (human (endogenous in MDA-MB-231)), Q16531; settings: remark: other sources report otherwise

Molecule	binding [1]	further results
BAF53 (from UniProt O96019 1-429)	binds	–
CUL4B (from UniProt Q13620 1-913)	–	binding [2]: binds
DMAP1 (from UniProt Q9NPF5 1-467)	binds	–
RUVBL1 (from UniProt Q9Y265 1-456)	binds	–
B1	–	binding [3]: binds
